Measurements reported in PubChem BioAssay AID1053208 (Peter MacCallum Cancer Centre, 2014).

Aim: 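Genes whose silencing cuts survival of bone tumour cells only with doxorubicin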 (primary screen)
Cell system: mouse osteosarcoma cells, early-passage culture from an engineered mouse model of fibroblastic bone tumour
Reagents: siRNA pool against mouse genes, 40 nM
Time to read-out: about 120 h (48 h before drug, then 72 h with drug)
Treatment: doxorubicin 100 nM for 72 h, roughly 30-40% inhibitory dose
Measured: 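Luminescent ATP signal taken as viability with or without 100 nM doxorubicin for 72 h; mean of two wells set against non-targeting siRNA and turned into robust z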
Direction: viability z-score with doxorubicin: higher = more viable cells under doxorubicin; viability z-score without drug: higher = more viable cells with knock-down alone
Call rule: 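Called active if knock-down leaves viability unchanged without drug (z within -2 to 2) but lowers it with doxorubicin (z at or under -2)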
The whole screen tested about 17,000 reagents; this is a random part of them. In the full data, 788 (4.7%) got an active call. 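Calls rest on z-score classes alone; an extra cut-off of viability at most 70% of control was not applied to them.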 A number with no mark means an inactive call. Further read-outs or replicates are left out here. No sequences are given here.

Fbxo31 (GeneID 76454) showed combined z-score class no change with or without drug; viability z-score with doxorubicin -0.67; viability z-score without drug -0.51. Epb41l4a (GeneID 13824) gave combined z-score class no change with or without drug; viability z-score with doxorubicin -0.34; viability z-score without drug 0.17. Knock-down of Tifa (GeneID 211550) came out at: combined z-score class no change with or without drug; viability z-score with doxorubicin 0.67; viability z-score without drug 0.51. Against P2ry10b (GeneID 213438) the deposit lists combined z-score class no change with or without drug; viability z-score with doxorubicin 0; viability z-score without drug 0. Depletion of Frmd4b (GeneID 232288) gave: combined z-score class no change with or without drug; viability z-score with doxorubicin 1.12; viability z-score without drug 1.18. Against Tas2r106 (GeneID 387341), the entry reads combined z-score class no change with or without drug; viability z-score with doxorubicin -0.67; viability z-score without drug -0.51.

After knock-down of Abcc9 (GeneID 20928) the results were combined z-score class no change with or without drug; viability z-score with doxorubicin -0.67; viability z-score without drug -0.34. Slc6a14 (GeneID 56774) scored combined z-score class no change with or without drug; viability z-score with doxorubicin -0.22; viability z-score without drug 1.35. Sh2b3 (GeneID 16923) gave combined z-score class no change with or without drug; viability z-score with doxorubicin 0.56; viability z-score without drug -0.34. For Kif16b (GeneID 16558), the entry reads combined z-score class no change with or without drug; viability z-score with doxorubicin 0.34; viability z-score without drug -0.84. Knock-down of Cbr4 (GeneID 234309) came out at: combined z-score class no change with or without drug; viability z-score with doxorubicin 0.34; viability z-score without drug -0.51. With knock-down of Prrx2 (GeneID 20204), the screen gave combined z-score class no change with or without drug; viability z-score with doxorubicin 1.01; viability z-score without drug 0.51.

Sorted by “viability z-score with doxorubicin” (lowest first): 2 of the entries above
Tas2r106 (GeneID 387341) → combined z-score class: no change with or without drug; viability z-score with doxorubicin: -0.67; viability z-score without drug: -0.51
Frmd4b (GeneID 232288) → combined z-score class: no change with or without drug; viability z-score with doxorubicin: 1.12; viability z-score without drug: 1.18
